Results taken from patent publication US20170362317A1.
Results are given in words; binding and its absence hold for the method and conditions named.

Assays:
[1] = biological target: recombinant human FGF (human); assay: ELISA, plate coated with the cytokine at 2 µg/ml, FB704 in four-fold serial dilutions, HRP-labeled goat anti-human IgG, A450 [Cont'd) B]
[2] = biological target: recombinant human FGF (human); assay: ELISA, cytokine coated on plate

B1: Ag1-4-6 (fully human anti-IL6 IgG1 antibody) (antibody, V domains shown)
VH: EVQLVESGPALVKPTQTLTLTCTFSGFSLSTGGMSVSWIRQPPGKALEWLARIDWDDDKFYTPSLKTRLTISRDTSKNQVVLIMTNMDPVDTATYYCARMHIDDSNGYYSDAFHIWGQGTMVTVSS
VL: EIVLTQSPATLSVSPGERVTLSCRDSQSVSSTSLAWYQQKSGQAPRLLIYDTSNRATGIPARFSGGGSGTDFTLTISSLEPEDFAVYYCSFVSRPYPRFTFGQGTKVEIK
With B1 the binding [1] was “no binding (tested: 2 µg/ml)” and the binding [2] was “no binding (tested: 2 µg/ml starting concentration)”.
